In article PMC9171067, “A High Throughput Cell-Based Screen Assay for LINE-1 ORF1p Expression Inhibitors Using the In-Cell Western Technique” (Frontiers in Pharmacology, 2022):

Tested on: T-47D cells
Assay: CCK-8 cell viability (CC50) in T-47D cells
Type: cell-based, human
Settings: CC50/EC50 in T-47D cells
Method: The 50% cytotoxic concentration (CC50) values of 5 drug leads were measured using normal […] cell line HUVEC and breast cancer cell line T-47D at 6 different inhibitor concentrations. HUVEC and T47-D cell lines in the logarithmic phase were reseeded into 96-well plates (Nest Inc.) at a density of 1×10^3 cells/well and the plates were incubated for up to 2 days. At the end of each experiment, cells were incubated with 10 µl of the CCK-8 reagent (Vazyme) at 37°C for 2 h. The optical density (OD) at 450 nm was measured by a microplate reader (PerkinElmer Inc.) according to the manufacturer’s instructions. The data are expressed as % of the control. The experiments were repeated at least three times. The 50% effective concentration (EC50) of 5 drugs were measured using breast cancer cell line T-47D and 6 different inhibitor concentrations.

SMILES	therapeutic index (TI)
c1csc(-c2ccc(-c3cccs3)s2)c1 [#2, 2,2':5′,2″-Terthiophene]	2.95
C#C[C@]1(O)CC[C@H]2[C@@H]3CCc4cc(O)ccc4[C@H]3CC[C@@]21C [#3, Ethynyl estradiol]	7.38
